# Results published in PMC7819943, “Rice protein-binding microarrays: a tool to detect cis-acting elements near promoter regions in rice”.
# This is one part of the list.
# Molecular target: T1, OsSMF1 (Oryza sativa, UniProt Q6ZLB0 1-436)
# T1 sequence: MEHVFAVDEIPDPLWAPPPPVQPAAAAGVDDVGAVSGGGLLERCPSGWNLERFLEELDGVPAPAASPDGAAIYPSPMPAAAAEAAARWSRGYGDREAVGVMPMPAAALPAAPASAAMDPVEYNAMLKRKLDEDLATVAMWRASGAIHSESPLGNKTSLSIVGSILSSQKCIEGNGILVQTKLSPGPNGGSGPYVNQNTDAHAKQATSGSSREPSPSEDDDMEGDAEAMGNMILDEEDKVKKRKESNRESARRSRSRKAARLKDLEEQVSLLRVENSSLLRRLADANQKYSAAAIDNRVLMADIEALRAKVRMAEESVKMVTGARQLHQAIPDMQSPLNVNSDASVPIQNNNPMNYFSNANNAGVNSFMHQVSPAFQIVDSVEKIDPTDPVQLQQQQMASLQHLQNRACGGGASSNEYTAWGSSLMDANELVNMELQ
# Assay: protein-binding microarray (RPBM); PBS, 2% BSA, 51.3 ng/ul salmon testes DNA, 50 uM zinc acetate, 200 nM TF, 25 C, 1 h; high values mean tight binding
# Conditions: protein: recombinant; tags: N-terminal polyhistidine and DsRed monomer fusion (pET32a); chain copies: 2; label: CyDye5-dUTP incorporated in the synthesized complementary strand; 3' TTTTT single-stranded linker to array surface; dsDNA, one strand shown
# How it was run: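 Transcription factors, each fused N-terminally to a polyhistidine tag and DsRed, were expressed in E. coli BL21-CodonPlus and purified on Ni–NTA. A custom Agilent array was made double-stranded by primer extension with Cy5-dUTP and blocked with 2% BSA. It was incubated with 200 nM protein in PBS, 2% BSA, salmon testes DNA and 50 µM zinc acetate at 25 °C for 1 h, then washed. The binding signal is per-feature fluorescence intensity (arbitrary units) read on an Axon 4000B scanner.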
row,Sequence,binding signal
1,TTACTCACGTTGGCGTGGTGGACCACGTCCACCGACCCGCCGGAGTCACCTAGTGCAG,4090 fluorescence intensity (a.u.)
2,CAGCTTTTCTAGCATGCCACGCCACCAAATTTACAATCAGCGGAGTCACCTAGTGCAG,3160 fluorescence intensity (a.u.)
3,CTGTGATGTGCGAGTCATCACGTGCATAGCAAAATGGGAACGGAGTCACCTAGTGCAG,4550 fluorescence intensity (a.u.)
4,TCTTTCTCAAAATAATTTGTCTGGAACAATCCCTAGATTCCGGAGTCACCTAGTGCAG,21700 fluorescence intensity (a.u.)
5,GGTACATACCACAGATAGCGACAACACCAACTCATACTATCGGAGTCACCTAGTGCAG,3190 fluorescence intensity (a.u.)
6,GTTGGTGTGCACGTGAGTACACGTGAGGGCCTATGTGCATCGGAGTCACCTAGTGCAG,3180 fluorescence intensity (a.u.)
7,CTTCTCACACGTCGTCAAAGCCTCTGACTTTGGATATCCCCGGAGTCACCTAGTGCAG,4680 fluorescence intensity (a.u.)
8,CGTGTCCATCCTCCACCACGTCACGCTGGGCGGGACCGGCCGGAGTCACCTAGTGCAG,13200 fluorescence intensity (a.u.)
9,CATATTCATATTGATGTTAATGAATCTAGACATTATTAACCGGAGTCACCTAGTGCAG,34600 fluorescence intensity (a.u.)
10,ATGATGTGATGGCGCCCGGTGGACAGCTTCTCCAGTCGGCCGGAGTCACCTAGTGCAG,22600 fluorescence intensity (a.u.)
11,GAACTCCGAAAATCGTAAGCCCAGGACGTGTCGGCACGGGCGGAGTCACCTAGTGCAG,4540 fluorescence intensity (a.u.)
12,TTCGTTTACCTTCTCCGACTCCTGACGCGGCCTCAACAAGCGGAGTCACCTAGTGCAG,4940 fluorescence intensity (a.u.)
13,ATCTCGCTCGGTTTCGCCGACCCTGACGGGGAACCAACCACGGAGTCACCTAGTGCAG,3600 fluorescence intensity (a.u.)
14,GCTGCTCTCTTTCCTCTCTTCTCTCTCTGTTTTCTCTCCTCGGAGTCACCTAGTGCAG,18500 fluorescence intensity (a.u.)
15,ATTTATTGAGGTATTGAATGAGGATTCTAGGAGGAACTAGCGGAGTCACCTAGTGCAG,22700 fluorescence intensity (a.u.)
16,CCATGGCGGTGACGCTGCTGCTCCGGCGGTCAAAGGCTCTCGGAGTCACCTAGTGCAG,21100 fluorescence intensity (a.u.)
17,AAACAGTAGCTTCCTACTCAGATTAATCAGGAGAAGCATTCGGAGTCACCTAGTGCAG,3170 fluorescence intensity (a.u.)
18,CGTGAAATAGCGCATTTAAAATTTGAGTTACGACATGTTCCGGAGTCACCTAGTGCAG,17200 fluorescence intensity (a.u.)
19,AGTTATGGACCATCCGGAATCTGACGAGGAGTTCGTCCAGCGGAGTCACCTAGTGCAG,4860 fluorescence intensity (a.u.)
20,CGAGGAGGAGGCGTAGCAGCCGCCGCGTTGGCAAGCGCCACGGAGTCACCTAGTGCAG,4060 fluorescence intensity (a.u.)
21,ATATTAGTGGCCAGGTCATTTGCATCGACGGTGGCCACACCGGAGTCACCTAGTGCAG,4470 fluorescence intensity (a.u.)

row,Sequence,binding signal
1,GCAATCCTTGCACGCGGCGGCGCACTTCTTCACCTTGTCGCGGAGTCACCTAGTGCAG,4080 fluorescence intensity (a.u.)
2,GGGCAGCTTCTCGCTGCGGCAGCCGCCGGTGGTGGACATCCGGAGTCACCTAGTGCAG,3800 fluorescence intensity (a.u.)
3,CACGGTTCACCATCCACGCGCATGACTCGTTCCACGAGCCCGGAGTCACCTAGTGCAG,5130 fluorescence intensity (a.u.)
4,GGGGACAATAGAGATGACGCCAATTCATTGATGCCATGAACGGAGTCACCTAGTGCAG,3250 fluorescence intensity (a.u.)
5,GCGCGAGAATAACGTGGGCGTGACGACGTGGACGGGTCTCCGGAGTCACCTAGTGCAG,9490 fluorescence intensity (a.u.)
6,ACCTCCCCGACGGCGTCCGCGTGCCGCGCTCCACGCGCACCGGAGTCACCTAGTGCAG,3460 fluorescence intensity (a.u.)
7,AGACGTGTCAGCAAAAGTTCGCTTGTTTATCACCTGACGACGGAGTCACCTAGTGCAG,3780 fluorescence intensity (a.u.)
8,GTATACTGTACTCTAACATACGTGTGTACAAACATGTCAGCGGAGTCACCTAGTGCAG,4460 fluorescence intensity (a.u.)
9,ATTCGGACTGAAAATAAAAGTAGTTTCAGGTCACTCACATCGGAGTCACCTAGTGCAG,7120 fluorescence intensity (a.u.)
10,GGACGCATAATCTCGTCGGTGTGCGTCAGTCATTCCAGTGCGGAGTCACCTAGTGCAG,4470 fluorescence intensity (a.u.)
11,ATCCACAAAAGATCCCCACACCTGATCACACCCAGTTTAACGGAGTCACCTAGTGCAG,3180 fluorescence intensity (a.u.)
12,TATATGTTCGTTGCAGCTTACTCATAATAATCCAGATTATCGGAGTCACCTAGTGCAG,3440 fluorescence intensity (a.u.)
13,TCAGCGATGACGAACAACAAGCGGGTTGACGGCTGTATCGCGGAGTCACCTAGTGCAG,29400 fluorescence intensity (a.u.)
14,TGGAGGAAGTCAGTAGGATCCCACGTGTCATACTCACACCCGGAGTCACCTAGTGCAG,22200 fluorescence intensity (a.u.)
15,AGAATGGTGGGGCCACGAGGGCCCCACATGTCATTCTCACCGGAGTCACCTAGTGCAG,4640 fluorescence intensity (a.u.)
16,AATCTGCAATGCAGCACACGCTGACACGCATGTCTCTGTCCGGAGTCACCTAGTGCAG,4360 fluorescence intensity (a.u.)
17,CTTCTTCTTCTGACGTCGCCTCCTTTATTCCTCCGCGTTCCGGAGTCACCTAGTGCAG,4110 fluorescence intensity (a.u.)
18,CGAGCCCATACGTGACAGGCCTTACATGTGTGGGCCGTGCCGGAGTCACCTAGTGCAG,3700 fluorescence intensity (a.u.)
19,GGTGGCTTACAAGAAACGATGGGATCGATATATTCCTTCGCGGAGTCACCTAGTGCAG,3580 fluorescence intensity (a.u.)
20,GCGATGTGCACATGGATTTTAGTGGTAGGTAATGTACCCGCGGAGTCACCTAGTGCAG,3300 fluorescence intensity (a.u.)
21,CTCATATGCTTTCCCTTTCTCAGCTCCAGCTCATTCGCTACGGAGTCACCTAGTGCAG,5300 fluorescence intensity (a.u.)

# Individual results from the results shown.
# For binding signal, TGGAGGAAGTCAGTAGGATCCCACGTGTCATACTCACACCCGGAGTCACCTAGTGCAG is entered as 22200 fluorescence intensity (a.u.)
# For binding signal, GGGCAGCTTCTCGCTGCGGCAGCCGCCGGTGGTGGACATCCGGAGTCACCTAGTGCAG is entered as 3800 fluorescence intensity (a.u.)
# For binding signal, GGACGCATAATCTCGTCGGTGTGCGTCAGTCATTCCAGTGCGGAGTCACCTAGTGCAG is entered as 4470 fluorescence intensity (a.u.)
